# According to the supplement of paper PMC12889115:
# The other results are listed elsewhere or left out. These are raw signals, not scaled to a control.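 In the initial screen, polymyxin B was used at a concentration that permeabilizes Salmonella's outer membrane but not its inner membrane. Maximum growth was set by DMSO wells with or without polymyxin B. Since plates varied, data were ranked per plate, and compounds giving the lowest OD600 advanced as hits.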
# Test system: Salmonella enterica serovar Typhimurium SL1344
# Assay: bacterial growth OD600 after 18 h with compound and polymyxin B; higher = more bacterial growth (less inhibition)
# Conditions: 50 µM, Mueller-Hinton broth
SMILES,bacterial growth OD600 (polymyxin B 0.75 µg/mL),bacterial growth OD600 (polymyxin B 1 µg/mL)
CCC(C)CC(=O)NCc1nc(-c2ccccc2NC(=O)Cc2ccccc2)oc1C (configuration not stated),0.778,–
CN(Cc1cn(Cc2ccccc2)nc1-c1ccc2c(c1)OCO2)C1CCOC1 (configuration not stated),–,0.843
CN(C)C(=O)CCC(=O)N1CCCC(CCc2ccc(F)c(F)c2)C1 (configuration not stated),0.805,–
CCn1cc(CN2CCC(Oc3cc(OC)ccc3C(=O)NCCOC)CC2)cn1,–,1.23
COc1cccc(OCc2cc(C(=O)NCc3nc(C)cs3)n[nH]2)c1,0.934,–
CCOC(=O)C1(Cc2cccc(F)c2)CCN(Cc2cc(C(C)C)[nH]n2)CC1,–,0.703
CC(C)=CC(=O)N1CCCC(C(=O)c2cccc3ccccc23)C1 (configuration not stated),–,0.639
O=C1O[C@@H]2CN(C3CCSCC3)C[C@@H]2N1CCc1cccc(Cl)c1,–,0.949
Cc1ncc(CN2CCCC2C(=O)Nc2ccc(-c3cccc(F)c3)cc2)cn1 (configuration not stated),–,0.86
O=C(Nc1ccccc1Oc1cccnc1)C1CCCN1C(=O)CC1CC1 (configuration not stated),–,0.992
COc1ccccc1OC1CCN(c2nc3nonc3nc2N2CCOCC2)CC1,–,0.744
Cc1ncc2c(c1CNC(=O)Cc1cccs1)CCN(C(=O)c1c(-c3ccccc3)noc1C)C2,0.876,–
O=C(C(=O)N1CCc2[nH]nc(-c3ccc(Cl)cc3)c2C1)c1ccco1,0.603,–
COc1ccccc1-n1cc(CNC(=O)CCC2(Cc3ccc(SC)cc3)CCC(=O)N2)cn1 (configuration not stated),0.812,–
O=C(NC1CCCCCCC1)C1CCC(=O)N(C2CCCC2)C1 (configuration not stated),–,0.816
COc1ccc(CCN2CC(C(=O)NCC3(C)COC3)CCC2=O)cc1 (configuration not stated),–,0.953

SMILES,bacterial growth OD600 (polymyxin B 0.75 µg/mL),bacterial growth OD600 (polymyxin B 1 µg/mL)
O=C1CCC(CCNCCOc2ccc(F)cc2)N1CCCN1CCOCC1 (configuration not stated),0.898,–
CN(C)c1ncc2c(n1)CCCC2NC1Cc2ccccc2C1 (configuration not stated),0.95,–
O=C(C1CCCC1)N1CCC2(CCCN(Cc3cccnc3)C2=O)C1 (configuration not stated),–,1.1
CO[C@H]1[C@H](NC(=O)C(C)C)c2ccccc2C12CCN(C(=O)COc1ccc(C)cc1)CC2,0.826,–
CCN(Cc1ccccc1)Cc1nc(-c2ccc(OC)c(C)c2OC)oc1C,0.682,–
CC(C)c1nc2cc(C(=O)N3CCCCC3CCN3CCOCC3)ccc2o1 (configuration not stated),0.844,–
CCOC(=O)C1CCCN(C(=O)CC2(c3ccccc3Cl)CC(=O)N(C3CCCC3)C2=O)C1 (configuration not stated),0,–
COc1ccc2cc(CN(Cc3ccco3)C(=O)CCn3ccc(C)n3)c(N3CCCCCC3)nc2c1,0.002,–
O=C(Cn1cc2ccccc2n1)NC1CC(=O)N(CC2CCCCC2)C1 (configuration not stated),–,1.11
Cc1oc(-c2ccc(NC(=O)Cc3ccccc3)cc2)nc1CNC(=O)c1ccc(-c2ccco2)cc1,0.848,–
CC(C)(C)C(=O)Nc1ccnn1C1CCN(Cc2cc(Cl)ccc2O)CC1,0.691,–
Cc1csc(C(C)N(C)C(=O)Cn2nnnc2CN2CCCC2)n1 (configuration not stated),–,0.825
COc1ccc(C(=O)N2CCc3onc(-c4ccc(F)c(F)c4)c3C2)cc1F,0.002,–
CN(CC1CCCN(CCc2ccccc2F)C1)C1CCSCC1 (configuration not stated),0.81,–
Cc1ccccc1-c1noc(-c2ccc(N3CCCC(C(N)=O)C3)nc2)n1 (configuration not stated),0.782,–
COc1ccc(CCC2CCCN(C(=O)c3cc(C(C)=O)n[nH]3)C2)cc1 (configuration not stated),0.973,–

# As a working copy, part of the list above.
SMILES,bacterial growth OD600 (polymyxin B 0.75 µg/mL),bacterial growth OD600 (polymyxin B 1 µg/mL)
Cc1ncc(CN2CCCC2C(=O)Nc2ccc(-c3cccc(F)c3)cc2)cn1 (configuration not stated),–,0.86
O=C(Nc1ccccc1Oc1cccnc1)C1CCCN1C(=O)CC1CC1 (configuration not stated),–,0.992
COc1ccccc1OC1CCN(c2nc3nonc3nc2N2CCOCC2)CC1,–,0.744
Cc1ncc2c(c1CNC(=O)Cc1cccs1)CCN(C(=O)c1c(-c3ccccc3)noc1C)C2,0.876,–
O=C(C(=O)N1CCc2[nH]nc(-c3ccc(Cl)cc3)c2C1)c1ccco1,0.603,–
COc1ccccc1-n1cc(CNC(=O)CCC2(Cc3ccc(SC)cc3)CCC(=O)N2)cn1 (configuration not stated),0.812,–
O=C(NC1CCCCCCC1)C1CCC(=O)N(C2CCCC2)C1 (configuration not stated),–,0.816
COc1ccc(CCN2CC(C(=O)NCC3(C)COC3)CCC2=O)cc1 (configuration not stated),–,0.953
O=C1CCC(CCNCCOc2ccc(F)cc2)N1CCCN1CCOCC1 (configuration not stated),0.898,–
CN(C)c1ncc2c(n1)CCCC2NC1Cc2ccccc2C1 (configuration not stated),0.95,–
